Data taken from publication PMC7327168.

Sequences of proteins named here, by UniProt entry; tags and fusion partners are left off. A change or cut given only in a name is not applied to a line headed by its entry.
UniProt Q9HX38: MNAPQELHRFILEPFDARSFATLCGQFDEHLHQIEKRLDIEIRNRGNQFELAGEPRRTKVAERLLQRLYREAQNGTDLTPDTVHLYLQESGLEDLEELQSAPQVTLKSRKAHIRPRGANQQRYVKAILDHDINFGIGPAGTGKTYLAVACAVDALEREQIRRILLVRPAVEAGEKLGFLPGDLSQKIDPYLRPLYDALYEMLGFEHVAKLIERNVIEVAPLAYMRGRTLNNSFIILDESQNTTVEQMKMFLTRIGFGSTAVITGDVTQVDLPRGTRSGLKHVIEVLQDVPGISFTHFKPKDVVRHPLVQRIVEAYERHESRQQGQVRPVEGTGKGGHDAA

Molecular target: YbeZ-GST (P. aeruginosa YbeZ fused to GST) (Pseudomonas aeruginosa PA14) (UniProt Q9HX38)
Test: pull-down; GST or YbeZ-GST bound to GST tag purification resin; incubated with PA14 cell lysate containing YbeY-His for 2 h at 4°C; washed three times with lysis buffer (phosphate, 0.3 M NaCl, pH 8.0); eluted with 60 mM reduced glutathione; Western blot; only the target purified

binding: binds
B1: YbeY-His (C-terminal 6×His-tagged P. aeruginosa endoribonuclease YbeY) (enzyme, UniProt Q9HX37 1-160)
chain: MPLELDLQVASAAPDLPSEAQFRAWCELALRQRPESELTIRLVDEAEGLELNSTYRHKDYATNVLSFPADVPDELLDIPLLGDLVICAPVVAREALEQRKPLQAHWAHLVIHGCLHLLGYDHIDDAEAEEMETLERELLAELGHPDPYACDDEEPPSKEK

No constants are given. Whether binding was seen depends on the method and setting. In cells and extracts the contact can be indirect. A result given as binding can be weak or reduced; the word gives no strength. Sequences can lack the tags named with a protein.
